Record: PubChem BioAssay AID1508597 (Cure First, 2020)
This is a random part of the about 2,100 reagents, under one of the conditions tested. 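Calls flag viability under 80% in either arm, not effects specific to rucaparib; the reference for percent is not stated.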 Unmarked entries are inactive. Some reagents were tested in more than one well and are listed for each. Not stated in the record: the 100% reference.

- Screen: 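Genes whose silencing sensitises or protects ovarian cancer cells against rucaparib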 (primary screen)
- System: human ovarian carcinoma lines grown from tumours: OCI-P5x (papillary serous) and OCI-C5x (clear cell)
- Knock-down reagent: siRNA pool against human genes, 1.25 pmol siRNA per well
- Time to read-out: 72 h or 96 h, depending on the cell culture
- Treatment: rucaparib 20 µM (about IC30) or vehicle, present until read-out
- Rucaparib or vehicle: Rucaparib
- Cell line: OCI-P5x (serous)
- Measured: 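ATP luminescence measured at 72 or 96 h according to the culture, then normalised and expressed as percent viability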
- Direction: viability, normalised: higher = more viable cells remaining
- Call rule: 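a well counts as a hit if its normalised viability is under 80 percent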
- Calls: active = viability under 80%; inactive = viability 80% or more

target	technical replicate	viability, normalised (%)
MIER3 (GeneID 166968)	1	49.4 (active)
MIER3 (GeneID 166968)	2	58 (active)
MIER3 (GeneID 166968)	3	42.5 (active)
TERF2 (GeneID 7014)	1	84.6
TERF2 (GeneID 7014)	1	58.5 (active)
TERF2 (GeneID 7014)	2	77.9 (active)
TERF2 (GeneID 7014)	2	76.5 (active)
TERF2 (GeneID 7014)	3	71.6 (active)
TERF2 (GeneID 7014)	3	70.6 (active)
FBXL19 (GeneID 54620)	1	74.6 (active)
FBXL19 (GeneID 54620)	2	63.5 (active)
FBXL19 (GeneID 54620)	3	72.9 (active)
SP140 (GeneID 11262)	1	46 (active)
SP140 (GeneID 11262)	2	49.4 (active)
SP140 (GeneID 11262)	3	45.4 (active)
RPS3A (GeneID 6189)	1	65 (active)
RPS3A (GeneID 6189)	2	62.8 (active)
RPS3A (GeneID 6189)	3	62.6 (active)
MBD1 (GeneID 4152)	1	77.5 (active)
MBD1 (GeneID 4152)	2	74.1 (active)
MBD1 (GeneID 4152)	3	70.3 (active)
ALDOA (GeneID 226)	1	66.5 (active)
ALDOA (GeneID 226)	2	64.8 (active)
ALDOA (GeneID 226)	3	68.8 (active)

Ordered by “viability, normalised (%)” (low to high): some entries from above.
target	technical replicate	viability, normalised (%)
RPS3A (GeneID 6189)	3	62.6 (active)
RPS3A (GeneID 6189)	2	62.8 (active)
RPS3A (GeneID 6189)	1	65 (active)
MBD1 (GeneID 4152)	1	77.5 (active)
